PubChem BioAssay AID493246 | Drosophila RNAi Screening Center, 2011
Test: 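Identify essential fly genes by loss of cell viability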 (primary screen). Cells: Drosophila Kc and S2R+ cells. Knock-down reagent: long dsRNA against Drosophila genes. Measurement: 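Cell number per well after knock-down, printed as raw plate values; calls were based on per-plate z-scores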. Direction: Kc cell number and S2R+ cell number: higher = more cells remaining. Rule for the call: 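Active when the per-plate z-score of cell number is 3 or more in the direction of fewer cells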.
The deposit covers about 21,000 reagents; this is an unselected part of those that have a named target and a result. Over the whole deposit, 429 (2%) got an active call. 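Values are raw and not normalised between plates; calls rest on per-plate z-scores that were not deposited.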 Reagent sequences are not shown. Not stated in the record: the amount of reagent, the time to read-out.

no.	Gene	DRSC id	Kc cell number, rep 1	Kc cell number, rep 2	S2R+ cell number, rep 1	S2R+ cell number, rep 2	Outcome
1	pcs (GeneID 36674)	DRSC07042	1.38e6	1.52e6	1.06e6	1.18e6	inactive
2	CG3906 (GeneID 37721)	DRSC04431	1.52e6	1.54e6	1.14e6	1.23e6	inactive
3	Nrg (GeneID 31792)	DRSC17573	1.20e6	1.40e6	1.09e6	1.14e6	inactive
4	Nrg (GeneID 31792)	DRSC18688	5.60e5		8.59e5		inactive
5	CG34200 (GeneID 5740389)	DRSC04804	1.43e6	1.53e6	9.77e5	1.01e6	inactive
6	CG11986 (GeneID 41083)	DRSC14461	1.43e6	1.50e6	1.20e6	1.25e6	inactive
7	RpS9 (GeneID 39108)	DRSC11273	8.83e5	1.01e6	9.27e5	9.39e5	active
8	CG31601 (GeneID 318835)	DRSC03678	4.62e5		8.52e5		inactive
9	CG10761 (GeneID 31749)	DRSC17753	1.52e6	1.50e6	1.05e6	1.17e6	inactive
10	CG33523 (GeneID 38668)	DRSC09814	1.60e6	1.51e6	1.09e6	1.22e6	inactive
11	Skeletor (retired record) (GeneID 3771796)	DRSC14905	1.47e6	1.56e6	1.21e6	1.33e6	inactive
12	Skeletor (retired record) (GeneID 3771796)	DRSC14906	1.67e6	1.72e6	1.45e6	1.53e6	inactive
13	fs(1)Ya (GeneID 31263)	DRSC18776	5.04e5		7.03e5		inactive
14	CG4586 (GeneID 31641)	DRSC18373	5.76e5		9.61e5		inactive
15	Mdr49 (GeneID 36428)	DRSC07466	1.18e6	1.49e6	8.88e5	8.93e5	inactive
16	Atg1 (GeneID 39454)	DRSC09809	1.43e6	1.50e6	1.39e6	1.34e6	inactive
17	Atg1 (GeneID 39454)	DRSC09810	1.30e6	1.43e6	1.31e6	1.42e6	inactive
18	Mekk1 (GeneID 42253)	DRSC16302	1.67e6	1.70e6	1.23e6	1.32e6	inactive
19	Mekk1 (GeneID 42253)	DRSC16303	1.16e6	1.15e6	1.11e6	1.19e6	inactive

Next part; the last 2 above are carried over.
no.	Gene	DRSC id	Kc cell number, rep 1	Kc cell number, rep 2	S2R+ cell number, rep 1	S2R+ cell number, rep 2	Outcome
18	Mekk1 (GeneID 42253)	DRSC16302	1.67e6	1.70e6	1.23e6	1.32e6	inactive
19	Mekk1 (GeneID 42253)	DRSC16303	1.16e6	1.15e6	1.11e6	1.19e6	inactive
20	Cpr23B (GeneID 33480)	DRSC00555	1.67e6	1.64e6	1.11e6	1.27e6	inactive
21	GramD1B (GeneID 33552)	DRSC00426	1.56e6	1.48e6	1.17e6	1.32e6	inactive
22	GramD1B (GeneID 33552)	DRSC00591	1.21e6	1.28e6	1.03e6	1.06e6	inactive
23	Socs16D (GeneID 32760)	DRSC20087	1.47e6	1.48e6	9.83e5	1.09e6	inactive
24	CG32971 (GeneID 318271)	DRSC01372	1.43e6	1.43e6	8.91e5	1.11e6	inactive
25	CG10140 (GeneID 39511)	DRSC09704	1.30e6	1.30e6	1.31e6	1.37e6	inactive
26	CG4455 (GeneID 34975)	DRSC01983	1.26e6	1.28e6	1.28e6	1.38e6	inactive
27	CG14839 (GeneID 41736)	DRSC14963	1.52e6	1.54e6	1.02e6	1.17e6	inactive
28	CG5790 (GeneID 35095)	DRSC02896	1.39e6	1.43e6	1.36e6	1.29e6	inactive
29	CG12391 (GeneID 36170)	DRSC06147	1.32e6	1.44e6	1.04e6	1.03e6	inactive
30	CG8534 (GeneID 41210)	DRSC16439	1.63e6	1.89e6	1.32e6	1.41e6	inactive
31	rhea (GeneID 38978)	DRSC11300	1.31e6	1.39e6	1.15e6	1.18e6	inactive
32	CG18549 (GeneID 41538)	DRSC15347	1.72e6	1.86e6	1.22e6	1.39e6	inactive
33	CG31792 (GeneID 35163)	DRSC02604	1.51e6	1.66e6	1.33e6	3.11e5	inactive
34	CG7568 (GeneID 43482)	DRSC16259	1.47e6	1.47e6	1.01e6	1.09e6	inactive
35	CG31643 (GeneID 318867)	DRSC00906	1.56e6	1.61e6	1.08e6	1.25e6	inactive
36	CG15506 (GeneID 43498)	DRSC15047	1.46e6	1.44e6	9.90e5	1.06e6	inactive
37	CG18266 (GeneID 33792)	DRSC02659	1.36e6	1.69e6	2.96e5	2.10e5	inactive
38	CG4230 (GeneID 33743)	DRSC02740	1.23e6	1.29e6	5.73e5	5.89e5	inactive
39	CG16904 (GeneID 41212)	DRSC15161	1.58e6	1.71e6	1.47e6	1.47e6	inactive
40	CG8915 (GeneID 32715)	DRSC20119	1.51e6	1.56e6	1.03e6	1.10e6	inactive
